# Microarray screen: hit calls

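Compounds were printed on reactive glass slides in duplicate spots, a dye-labelled oligonucleotide was laid over them, and the fluorescence left after washing was read. The data file lists only calls. An earlier report of the laboratory on the PreQ1, TPP and SAM-II riboswitches (doi:10.1038/s41467-019-09493-3) used 1 µM RNA for 2 h and required a mean Z-score above 3 (spot signal-to-noise against the whole library), a score well above that on a control array, and duplicate spots agreeing (coefficient of variation under 100); it then also set aside compounds that hit other targets, which this list keeps. The cut-offs behind this list may differ. The calls come from the array alone, and fixing a compound to the slide can hide its binding.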 Key: Y = hit, N = tested without a hit. The compounds are a random part of those screened. A dash means that no call is listed here.

Targets, with sequences 5′ to 3′:
TPP: TPP riboswitch RNA three-way junction, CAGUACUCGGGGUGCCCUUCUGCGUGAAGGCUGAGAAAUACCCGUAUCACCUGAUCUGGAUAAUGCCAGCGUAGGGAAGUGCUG. About 24,000 compounds screened, about 160 hits.
SAM-II: SAM-II riboswitch RNA pseudoknot, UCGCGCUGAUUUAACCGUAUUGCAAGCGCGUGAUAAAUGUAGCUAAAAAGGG. About 21,000 compounds screened, about 200 hits.
PreQ1: PreQ1 riboswitch RNA pseudoknot, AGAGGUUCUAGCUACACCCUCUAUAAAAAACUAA. From B. subtilis. About 24,000 compounds screened, about 170 hits.

| SMILES | TPP | SAM-II | PreQ1 |
|---|---|---|---|
| `CCC1(C)CC(=O)c2cc(NC(=O)CCc3cc4n(n3)CCCNC4)ccc2O1` (stereo not drawn) | N | N | N |
| `N#CC1=C(N)Oc2cc(O)ccc2C1c1cccc2ccccc12` (stereo not drawn) | N | N | N |
| `CN(C)S(=O)(=O)c1ccc(-c2nc(C#N)c(NC3CC3)o2)cc1` | N | - | N |
| `COc1ccccc1OC1CN(C(=O)Cc2c(C)nc(N)nc2C)C1` | N | N | N |
| `C=CCNc1nc2c(c(=O)n(C)c(=O)n2C)n1Cc1ccc(Cl)cc1` | N | N | N |
| `Cc1nnc2c(Nc3ccccc3N3CCOCC3)nc3ccccc3n12` | N | N | N |
| `CC1(C)CC(=O)C2=C(C1)OC(N)=C(C#N)C21C(=O)Nc2ccc(Br)cc21` (stereo not drawn) | N | N | Y |
| `Cc1cc(S(=O)(=O)[C@H]2CS(=O)(=O)C[C@@H]2NCc2ccccn2)ccc1F` | N | - | N |
| `CN(C)c1ccc(-c2nc3cnccn3c2Nc2cccc(Cl)c2)cc1` | N | - | N |
| `N#Cc1c(N)nc2c(c1-c1ccc(F)cc1)CCCCCC2` | N | N | N |
| `Cc1cccc(-c2noc(CN(C)C(=O)C3CCCN3)n2)c1` (stereo not drawn) | N | N | N |
| `Cc1ccc(NC(c2ccc(F)cc2)c2nnc(-c3ccccc3)o2)cc1` (stereo not drawn) | N | N | N |
| `Nc1ccc(Br)cc1-c1nc2ccccc2[nH]c1=O` | N | N | N |
| `CCOCCn1nc(C)cc1C(=O)N1CCC(Cc2ccc(CO)cc2)C1` (stereo not drawn) | N | N | N |
| `N#CC(c1ccnc(NCCc2cccnc2)n1)c1nc2ccccc2s1` (stereo not drawn) | N | N | N |
| `Cc1cnc(Nc2cccc(CN3CCOCC3)c2)nc1Nc1cccc(S(=O)(=O)NC(C)(C)C)c1` | N | N | N |
| `Cc1ccc([C@@H]2C[C@H](c3ccc(OCc4ccccc4)cc3)n3nc(N)nc3N2)cc1` | N | N | N |
| `NCCc1ccc(O)c(O)c1` | N | N | N |
| `CC(=O)Cc1nsc(NCCc2ccccc2)n1` | N | N | N |
| `CCc1sc(-c2c(C#N)c(N)nc3c2CCCC3)cc1Br` | N | N | N |
| `Cn1c(-c2ccc(F)cc2)cn2cc(C(=O)N3CCC(N)C3)nc2c1=O` (stereo not drawn) | N | N | N |
| `Cc1cc(NC[C@@H]2C[C@H](F)CN2)nc(-c2ccccc2O)n1` | N | N | N |
| `O=C1c2ccccc2C(=O)c2[nH]cnc21` | N | N | N |
| `CCOc1ccc(CCCC(=O)N2CCCCC2CO)cc1C` (stereo not drawn) | N | N | N |
| `CNc1oc(-c2ccc(Cl)cc2)nc1S(=O)(=O)c1ccccc1` | N | - | N |
| `OCc1csc2c1CCCC2` | N | - | N |
| `CC1=C(c2cccc(Cl)c2)S(=O)(=O)N=C1NCCN1CCN(C)CC1` | N | - | N |
| `N#Cc1c(-c2ccc(CN3CCCC3)s2)cc(-c2ccc[nH]2)nc1N` | N | N | N |
| `COCCNCc1c(C(=O)O)n(Cc2ccccc2Cl)c2ccccc12` | N | - | N |
| `COc1cccc(-c2noc(-c3ccc(-c4ccc(CO)cc4)nc3)n2)c1OC` | N | N | N |
| `Cc1cc(C)c2nc(C)cc(Nc3cccc(O)c3)c2c1` | N | N | N |
| `CC(C)(N)C(=O)N1C[C@@H](C(=O)O)[C@H](c2cccnc2)C1` | N | N | N |
| `OC1COCCN(c2nc(-c3ccc(F)cc3)cs2)C1` (stereo not drawn) | N | N | N |
| `CC=CCC(=O)NCC1CCN(C2CC(C)(C)NC(C)(C)C2)C1` (stereo not drawn) | N | N | N |
| `O=C(N[C@@H]1CCNC1)c1coc(CN2CCOCC2)c1` | N | N | N |
| `COc1ccccc1-c1cnn2c(NCC3CCCO3)cc(C)nc12` (stereo not drawn) | N | - | N |
| `CCSc1ncc(C2NCCc3[nH]cnc32)cn1` (stereo not drawn) | N | N | N |
| `c1ccc(Cc2nc(CNC3CCC4(CCNCC4)CC3)no2)cc1` | N | N | N |
| `CCC(=O)N1CCN(c2ccc(-n3c(=O)ccc4cnc5ccc(-c6cnc7ccccc7c6)cc5c43)cc2C(F)(F)F)CC1` | N | N | N |
| `Cn1c(=O)c(C(=O)N2CCC(C(O)Cc3ccccc3)CC2)cc2ccccc21` (stereo not drawn) | N | N | N |
| `O=c1c(Nc2cccc(C(F)(F)F)c2)c(-c2ccccc2)c1=O` | N | - | N |
| `OCCn1nc(C2(c3ccccc3)CC2)nc1-c1ccc2[nH]c(CO)nc2c1` | N | N | N |
| `Cc1cccn2c(CNC(C)CCc3ccc(O)cc3)cnc12` (stereo not drawn) | N | N | N |
| `Cc1cc(=O)c2cccc(C(=O)N(CCO)CCO)c2[nH]1` | N | N | N |

Some entries from above, unchanged:

SMILES	TPP	SAM-II	PreQ1
CC1=C(c2cccc(Cl)c2)S(=O)(=O)N=C1NCCN1CCN(C)CC1	N	-	N
Cc1ccc(NC(c2ccc(F)cc2)c2nnc(-c3ccccc3)o2)cc1 (stereo not drawn)	N	N	N
CC(=O)Cc1nsc(NCCc2ccccc2)n1	N	N	N
Cn1c(=O)c(C(=O)N2CCC(C(O)Cc3ccccc3)CC2)cc2ccccc21 (stereo not drawn)	N	N	N

Calls as published in the ROBIN set (doi:10.1002/anie.202211358).